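A panel of P. falciparum strains inside erythrocytes is exposed to compounds for three days, then a DNA-binding dye reports the amount of parasite DNA. Each compound was titrated across a series from about 0.000037 to 29 µM. The number is the fitted AC50, the concentration giving a half-maximal change in signal; a lower value means higher potency, whether the curve shows a decrease or an increase. Calls follow the curve class and fit quality: every row here is inconclusive, covering signal-raising curves and weak, poorly fitted, partial or highest-dose-only inhibition curves.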

Values are in µM. All entries here are filed as inconclusive. These entries are mostly ones the record files as inconclusive; other results of the assay are not listed here. Potencies fitted to partial, single-point or poorly fitting curves are rough.

compound,setting,potency (µM),curve
CN1CCCN(C(c2ccccc2)c2ccc(Cl)cc2)CC1 (configuration not stated),CP201,13.46,"inhibitor, partial curve, poor fit"
CN1CCCN(C(c2ccccc2)c2ccc(Cl)cc2)CC1 (configuration not stated),CP252,14.13,"inhibitor, single point"
CN1CCCN(C(c2ccccc2)c2ccc(Cl)cc2)CC1 (configuration not stated),CP269,15.1,"inhibitor, single point"
CN1CCCN(C(c2ccccc2)c2ccc(Cl)cc2)CC1 (configuration not stated),DFO2036,14.13,"inhibitor, partial curve"
CN1CCCN(C(c2ccccc2)c2ccc(Cl)cc2)CC1 (configuration not stated),CP203,10.69,"inhibitor, partial curve, poor fit"
CN1CCCN(C(c2ccccc2)c2ccc(Cl)cc2)CC1 (configuration not stated),CP291,19.01,"inhibitor, single point"
CN1CCCN(C(c2ccccc2)c2ccc(Cl)cc2)CC1 (configuration not stated),CP215,15.1,"inhibitor, single point"
CN1CCCN(C(c2ccccc2)c2ccc(Cl)cc2)CC1 (configuration not stated),CP238,8.912,"inhibitor, partial curve"
CN1CCCN(C(c2ccccc2)c2ccc(Cl)cc2)CC1 (configuration not stated),TAB113,11.22,"inhibitor, partial curve"
CN1CCCN(C(c2ccccc2)c2ccc(Cl)cc2)CC1 (configuration not stated),HB3,8.912,"inhibitor, single point"
CN1CCCN(C(c2ccccc2)c2ccc(Cl)cc2)CC1 (configuration not stated),CP211,13.46,"inhibitor, partial curve"
CN1CCCN(C(c2ccccc2)c2ccc(Cl)cc2)CC1 (configuration not stated),SC27B,10,"inhibitor, single point"
CN1CCCN(C(c2ccccc2)c2ccc(Cl)cc2)CC1 (configuration not stated),CP329,15.1,"inhibitor, single point"
Cn1ccc2cc3c(cc21)CCN3C(=O)Nc1cccnc1,CP265,14.13,"inhibitor, single point"
Cn1ccc2cc3c(cc21)CCN3C(=O)Nc1cccnc1,CP215,16.94,"inhibitor, single point"
Cn1ccc2cc3c(cc21)CCN3C(=O)Nc1cccnc1,CP335,13.46,"inhibitor, single point"
Cn1ccc2cc3c(cc21)CCN3C(=O)Nc1cccnc1,TAB113,10,"inhibitor, single point"
Cn1ccc2cc3c(cc21)CCN3C(=O)Nc1cccnc1,CP291,15.1,"inhibitor, single point"
Cn1ccc2cc3c(cc21)CCN3C(=O)Nc1cccnc1,CP185,11.22,"inhibitor, single point"
Cn1ccc2cc3c(cc21)CCN3C(=O)Nc1cccnc1,CP192,19.01,"inhibitor, single point"
Cn1ccc2cc3c(cc21)CCN3C(=O)Nc1cccnc1,CP211,19.01,"inhibitor, single point"
Cn1ccc2cc3c(cc21)CCN3C(=O)Nc1cccnc1,ATS189,17.78,"inhibitor, single point"
Cn1ccc2cc3c(cc21)CCN3C(=O)Nc1cccnc1,DIV30,15.1,"inhibitor, single point"
Cn1ccc2cc3c(cc21)CCN3C(=O)Nc1cccnc1,CP191,11.22,"inhibitor, single point"
Cn1ccc2cc3c(cc21)CCN3C(=O)Nc1cccnc1,AS120,17.78,"inhibitor, single point"
Cn1ccc2cc3c(cc21)CCN3C(=O)Nc1cccnc1,CP260,17.78,"inhibitor, single point"
Cn1ccc2cc3c(cc21)CCN3C(=O)Nc1cccnc1,PC49,12.59,"inhibitor, single point"
Cn1ccc2cc3c(cc21)CCN3C(=O)Nc1cccnc1,CP201,16.94,"inhibitor, single point"
Cn1ccc2cc3c(cc21)CCN3C(=O)Nc1cccnc1,ECU,17.78,"inhibitor, single point"
Cn1ccc2cc3c(cc21)CCN3C(=O)Nc1cccnc1,ICS,17.78,"inhibitor, single point"
Cn1ccc2cc3c(cc21)CCN3C(=O)Nc1cccnc1,CP325,13.46,"inhibitor, single point"
Cn1ccc2cc3c(cc21)CCN3C(=O)Nc1cccnc1,CP247,11.22,"inhibitor, single point"
Cn1ccc2cc3c(cc21)CCN3C(=O)Nc1cccnc1,JCK,10,"inhibitor, single point"
Cn1ccc2cc3c(cc21)CCN3C(=O)Nc1cccnc1,CP238,14.13,"inhibitor, single point"
Cn1ccc2cc3c(cc21)CCN3C(=O)Nc1cccnc1,DIV17,19.01,"inhibitor, single point"

Some entries from above, unchanged:

CN1CCCN(C(c2ccccc2)c2ccc(Cl)cc2)CC1 (configuration not stated) [CP329] gave potency 15.1 µM (inhibitor, single point).
Cn1ccc2cc3c(cc21)CCN3C(=O)Nc1cccnc1 [PC49] gave potency 12.59 µM (inhibitor, single point).

Data taken from PubChem BioAssay AID504749, deposited by NCATS (2011).